Measurements published in US10014546B2 (priority 2012, dated 2018).

Assay: 5 cm^2 active area flow battery cell test
Details: for cell potential at open circuit: 50% SOC

Oc1cccc2c1[O][Ti-2]13([O]c4ccccc4[O]1)([O]c1ccccc1[O]3)[O]2.[K+].[Na+] [Ti(catecholate)2(pyrogallate)^2−/3−, sodium potassium titanium(IV) biscatecholate monopyrogallate]
energy density of flow battery active materials (Example 4, […], Fe(CN)6 positive electrolyte): 32.79 Wh/L

CC(O)C(=O)[O-].CC(O)C(=O)[O-].O=C([O-])c1ccccc1O.[Ti+3] [Ti^IV/III(lactate)2(salicylate), titanium bis-lactate mono-salicylate]
cell potential at open circuit (Example 5, 1 M, Fe(CN)6 positive electrolyte, carbon paper, NAFION 25 μm): 1.60 V

Disodium titanium(IV) triscatecholate [Ti(catecholate)^2−/3−]
cell potential at open circuit (Example 2, 0.5 M, pH 11, Fe^3+/2+ (CN)6^3−/4− positive electrolyte, carbon felt, NAFION 50 μm): 1.63 V
